Measurements taken from PubChem BioAssay AID248 (DTP/NCI, 2004).
The list does not hold the whole screen: its compounds were picked by chemical class. Other doses and runs of a compound may be missing. T/C gives the treated animals as a percentage of the vehicle group. Some doses have a count of surviving animals in place of a T/C: the source files T/C as zero there, which appears to mark a toxic dose or a test without result, not a measured value. Some doses without a T/C left all or most animals alive at the check, yet need not have been tolerated: survival well below the control is almost never listed, so the zero probably covers shortened survival too. Survivors were counted at the toxicity check, usually on the fifth day, unless a day is given; later deaths do not show. Schedule codes are those of the source, read here as Q, the interval in days (D) or hours (H), X, the number of doses. Some schedule codes hold Z or #, which are not explained here. Where survival is the endpoint, the PubChem record calls one and a half times the control and up active, and a quarter to a half above the control has no call in these data; cut-offs in other NCI protocols can differ. Some doses were run more than once; their values stand side by side, smallest first. Some entries show no survivor count and are marked so; the dose need not have been tolerated. Some T/C values carry the count of animals alive at the toxicity check (mostly the fifth day); without a count or a note in brackets, all were alive then.

Tested on: L1210 leukemia ip in BDF1 mice, survival T/C
Assay: NCI In Vivo Anticancer Drug Screen. Data for tumor model L1210 Leukemia (intraperitoneal) in B6D2F1 (BDF1) mice
Settings: higher T/C = longer survival
[1] = T/C endpoint: mean survival time, dose: 125.0 mg/kg/injection, schedule: Q01DX010 (ip), vehicle: saline
[2] = T/C endpoint: mean survival time, dose: 50.0 mg/kg/injection, schedule: Q04DX003 (ip), vehicle: saline
[3] = T/C endpoint: mean survival time, dose: 100.0 mg/kg/injection, schedule: Q04DX003 (ip), vehicle: saline
[4] = T/C endpoint: mean survival time, dose: 200.0 mg/kg/injection, schedule: Q04DX003 (ip), vehicle: saline

In the case of `COC(=O)C(Cl)CSC(=N)N` (stereo not drawn), the T/C (T/C endpoint: mean survival time, dose: 75.0 mg/kg/injection, schedule: Q01DX001 (ip), vehicle: saline) is reported as 97 % of control, the T/C (T/C endpoint: mean survival time, dose: 150.0 mg/kg/injection, schedule: Q01DX001 (ip), vehicle: saline) is reported as 103 % of control and the survivor count (T/C endpoint: mean survival time, dose: 300.0 mg/kg/injection, schedule: Q01DX001 (ip), vehicle: saline) is reported as 1 of 6.
`CC[C@H](C)[C@@H]1NC(=O)/C(=C(\C)O)C1=O` was tested, and the T/C (T/C endpoint: mean survival time, dose: 12.5 mg/kg/injection, schedule: Q01DX Z (ip), vehicle: carboxymethylcellulose (CMC)) was 107 % of control, the T/C (T/C endpoint: mean survival time, dose: 15.6 mg/kg/injection, schedule: Q01DX010 (ip), vehicle: saline) was 104 and 106 % of control and the T/C (T/C endpoint: mean survival time, dose: 25.0 mg/kg/injection, schedule: Q01DX Z (ip), vehicle: carboxymethylcellulose (CMC)) was 120 % of control [5 of 6 alive]. The T/C (T/C endpoint: mean survival time, dose: 25.0 mg/kg/injection, schedule: Q01DX Z (ip), vehicle: water) was 98 % of control, the T/C (T/C endpoint: mean survival time, dose: 31.3 mg/kg/injection, schedule: Q01DX010 (ip), vehicle: saline) was 104 and 106 % of control and the T/C (T/C endpoint: mean survival time, dose: 50.0 mg/kg/injection, schedule: Q01DX Z (ip), vehicle: carboxymethylcellulose (CMC)) was 104 % of control [4 of 6 alive]. For the same compound, the survivor count (T/C endpoint: mean survival time, dose: 50.0 mg/kg/injection, schedule: Q01DX Z (ip), vehicle: water) was 3 of 6, the T/C (T/C endpoint: mean survival time, dose: 62.5 mg/kg/injection, schedule: Q01DX010 (ip), vehicle: saline) was 102 and 104 % of control and the survivor count (T/C endpoint: mean survival time, dose: 100.0 mg/kg/injection, schedule: Q01DX Z (ip), vehicle: carboxymethylcellulose (CMC)) was 0 of 6. The survivor count (T/C endpoint: mean survival time, dose: 100.0 mg/kg/injection, schedule: Q01DX Z (ip), vehicle: water) was 0 of 6, the T/C [1] was 110 % of control [5 of 6 alive] and the survivor count [1] was 0 of 6. For the same compound, the survivor count (T/C endpoint: mean survival time, dose: 200.0 mg/kg/injection, schedule: Q01DX Z (ip), vehicle: water) was 0 of 6, the T/C (T/C endpoint: median survival time, dose: 25.0 mg/kg/injection, schedule: Q04DX003 (ip), vehicle: saline) was 103 % of control and the T/C (T/C endpoint: median survival time, dose: 50.0 mg/kg/injection, schedule: Q04DX003 (ip), vehicle: saline) was 102 % of control. For the same compound, the T/C (T/C endpoint: median survival time, dose: 100.0 mg/kg/injection, schedule: Q04DX003 (ip), vehicle: saline) was 100 % of control [6 of 8 alive], the survivor count (T/C endpoint: median survival time, dose: 200.0 mg/kg/injection, schedule: Q04DX003 (ip), vehicle: saline) was 1 of 8 and the survivor count (T/C endpoint: median survival time, dose: 400.0 mg/kg/injection, schedule: Q04DX003 (ip), vehicle: saline) was 0 of 8.
In the case of `CCCCSC(C[N+](=O)[O-])C(Cl)(Cl)Cl` (stereo not drawn), the T/C (T/C endpoint: mean survival time, dose: 100.0 mg/kg/injection, schedule: Q01DX009 (ip), vehicle: saline with Tween-80) is reported as 88 % of control, the T/C (T/C endpoint: mean survival time, dose: 100.0 mg/kg/injection, schedule: Q04DX003 (ip), vehicle: saline with Tween-80) is reported as 98 % of control and the T/C (T/C endpoint: mean survival time, dose: 200.0 mg/kg/injection, schedule: Q01DX009 (ip), vehicle: saline with Tween-80) is reported as 91 % of control. The T/C (T/C endpoint: mean survival time, dose: 200.0 mg/kg/injection, schedule: Q04DX003 (ip), vehicle: saline with Tween-80) was 98 % of control, the T/C (T/C endpoint: mean survival time, dose: 400.0 mg/kg/injection, schedule: Q01DX009 (ip), vehicle: saline with Tween-80) was 90 % of control and the T/C (T/C endpoint: mean survival time, dose: 400.0 mg/kg/injection, schedule: Q04DX003 (ip), vehicle: saline with Tween-80) was 101 % of control.
`O=C1C(F)=C(NCCBr)C(=O)C(F)=C1NCCBr` was tested, and the T/C (T/C endpoint: mean survival time, dose: 6.25 mg/kg/injection, schedule: Q04DX003 (ip), vehicle: saline) was 98 % of control, the T/C (T/C endpoint: mean survival time, dose: 12.5 mg/kg/injection, schedule: Q04DX003 (ip), vehicle: saline) was 88 % of control and the T/C (T/C endpoint: mean survival time, dose: 25.0 mg/kg/injection, schedule: Q04DX003 (ip), vehicle: saline) was 92 % of control. The T/C [2] was 97 % of control, the T/C [3] was 103 % of control and the T/C [4] was 95 % of control.
`CC1CCCCN1.C[CH2][Sn]([Br])([CH2]C)[CH2]C` was tested, and the survivor count (T/C endpoint: mean survival time, dose: 100.0 mg/kg/injection, schedule: Q04DX002 (ip), vehicle: saline with Tween-80) was 0 of 3, the survivor count (T/C endpoint: mean survival time, dose: 200.0 mg/kg/injection, schedule: Q04DX002 (ip), vehicle: saline with Tween-80) was 0 of 3 and the survivor count (T/C endpoint: mean survival time, dose: 400.0 mg/kg/injection, schedule: Q04DX002 (ip), vehicle: saline with Tween-80) was 0 of 3.
For `O=C(Nc1c([N+](=O)[O-])cc([N+](=O)[O-])cc1[N+](=O)[O-])C(=O)Nc1c([N+](=O)[O-])cc([N+](=O)[O-])cc1[N+](=O)[O-]`, the T/C (T/C endpoint: mean survival time, dose: 100.0 mg/kg/injection, schedule: Q01DX001 (ip), vehicle: saline with Tween-80) was 86 % of control [survivor count not shown], the T/C (T/C endpoint: mean survival time, dose: 100.0 mg/kg/injection, schedule: Q04DX003 (ip), vehicle: other) was 88 % of control [survivor count not shown] and the T/C (T/C endpoint: mean survival time, dose: 200.0 mg/kg/injection, schedule: Q01DX001 (ip), vehicle: saline with Tween-80) was 91 % of control [survivor count not shown]. For the same compound, the T/C (T/C endpoint: mean survival time, dose: 200.0 mg/kg/injection, schedule: Q04DX003 (ip), vehicle: other) was 89 % of control [survivor count not shown], the T/C (T/C endpoint: mean survival time, dose: 400.0 mg/kg/injection, schedule: Q01DX001 (ip), vehicle: saline with Tween-80) was 89 % of control [survivor count not shown] and the T/C (T/C endpoint: mean survival time, dose: 400.0 mg/kg/injection, schedule: Q04DX003 (ip), vehicle: other) was 91 % of control [survivor count not shown].
In the case of `CCN(CC)CCOC(=O)C(O)(c1ccccc1)c1ccc(C)c(C)c1C` (stereo not drawn), the T/C (T/C endpoint: mean survival time, dose: 9.38 mg/kg/injection, schedule: Q01DX001 (ip), vehicle: steroid suspending solution) is reported as 100 % of control, the T/C (T/C endpoint: mean survival time, dose: 18.75 mg/kg/injection, schedule: Q01DX001 (ip), vehicle: steroid suspending solution) is reported as 96 % of control and the T/C (T/C endpoint: mean survival time, dose: 37.5 mg/kg/injection, schedule: Q01DX001 (ip), vehicle: steroid suspending solution) is reported as 98 % of control.
With `ClCCNNCc1ccc(Cl)cc1` the T/C [2] was 99 % of control, the T/C [3] was 99 % of control and the T/C [4] was 118 % of control [2 of 3 alive].
For `O=C(SCCCl)c1ccccc1`, the T/C (T/C endpoint: mean survival time, dose: 5.0 mg/kg/injection, schedule: Q01DX Z (ip), vehicle: saline) was 94 % of control, the T/C (T/C endpoint: mean survival time, dose: 10.0 mg/kg/injection, schedule: Q01DX Z (ip), vehicle: saline) was 89 % of control and the T/C (T/C endpoint: mean survival time, dose: 20.0 mg/kg/injection, schedule: Q01DX Z (ip), vehicle: saline) was 101 % of control. The T/C (T/C endpoint: mean survival time, dose: 40.0 mg/kg/injection, schedule: Q01DX010 (ip), vehicle: saline) was 90 % of control, the T/C (T/C endpoint: mean survival time, dose: 40.0 mg/kg/injection, schedule: Q01DX Z (ip), vehicle: saline) was 92 % of control and the T/C (T/C endpoint: mean survival time, dose: 80.0 mg/kg/injection, schedule: Q01DX010 (ip), vehicle: saline) was 90 % of control. The survivor count (T/C endpoint: mean survival time, dose: 160.0 mg/kg/injection, schedule: Q01DX010 (ip), vehicle: saline) was 6 of 6 and the T/C (T/C endpoint: mean survival time, dose: 320.0 mg/kg/injection, schedule: Q01DX010 (ip), vehicle: saline) was 98 % of control.
`O=C1CCOP(=O)(N(CCCl)CCCl)N1` (stereo not drawn) was tested, and the T/C (T/C endpoint: mean survival time, dose: 100.0 mg/kg/injection, schedule: Q04DX002 (ip), vehicle: Klucel (hydroxypropylcellulose) (HPC)) was 96 % of control, the T/C (T/C endpoint: mean survival time, dose: 200.0 mg/kg/injection, schedule: Q04DX002 (ip), vehicle: Klucel (hydroxypropylcellulose) (HPC)) was 99 % of control and the T/C (T/C endpoint: mean survival time, dose: 400.0 mg/kg/injection, schedule: Q04DX002 (ip), vehicle: Klucel (hydroxypropylcellulose) (HPC)) was 105 % of control.
`CCOP(=O)(OCC)C1CN1` (stereo not drawn) was tested, and the T/C [3] was 110 % of control, the T/C [4] was 108 % of control and the T/C (T/C endpoint: mean survival time, dose: 400.0 mg/kg/injection, schedule: Q04DX003 (ip), vehicle: saline) was 110 % of control.
For `O=[N+]([O-])c1cc([N+](=O)[O-])c(NN2CCCCC2)c([N+](=O)[O-])c1`, the T/C (T/C endpoint: mean survival time, dose: 100.0 mg/kg/injection, schedule: Q01DX009 (ip), vehicle: Klucel (hydroxypropylcellulose) (HPC)) was 95 % of control [survivor count not shown], the T/C (T/C endpoint: mean survival time, dose: 100.0 mg/kg/injection, schedule: Q04DX003 (ip), vehicle: Klucel (hydroxypropylcellulose) (HPC)) was 91 % of control [survivor count not shown] and the T/C (T/C endpoint: mean survival time, dose: 200.0 mg/kg/injection, schedule: Q01DX009 (ip), vehicle: Klucel (hydroxypropylcellulose) (HPC)) was 97 % of control [survivor count not shown]. The T/C (T/C endpoint: mean survival time, dose: 200.0 mg/kg/injection, schedule: Q04DX003 (ip), vehicle: Klucel (hydroxypropylcellulose) (HPC)) was 89 % of control [survivor count not shown], the T/C (T/C endpoint: mean survival time, dose: 400.0 mg/kg/injection, schedule: Q01DX009 (ip), vehicle: Klucel (hydroxypropylcellulose) (HPC)) was 93 % of control [survivor count not shown] and the T/C (T/C endpoint: mean survival time, dose: 400.0 mg/kg/injection, schedule: Q04DX003 (ip), vehicle: Klucel (hydroxypropylcellulose) (HPC)) was 92 % of control [survivor count not shown].
